Reference: PMC3288053 (PLoS ONE, 2012)
Results are given in words; binding and its absence hold for the method and conditions named. Some results given as binding are weak or reduced against the parent protein; the word gives no strength.

Sequences of proteins named here, by UniProt entry; tags and fusion partners are left off. Residues count along the entry.
UniProt P19793, residues 229-458: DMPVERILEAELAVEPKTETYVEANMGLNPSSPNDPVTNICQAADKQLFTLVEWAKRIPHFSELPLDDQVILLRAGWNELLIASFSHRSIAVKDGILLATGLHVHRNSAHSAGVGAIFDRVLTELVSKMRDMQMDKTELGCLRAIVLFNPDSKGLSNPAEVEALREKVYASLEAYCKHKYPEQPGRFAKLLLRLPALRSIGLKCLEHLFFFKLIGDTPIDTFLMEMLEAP

Target: Retinoid X receptor α ligand-binding domain (RXRα-LBD), His-tagged, purified (human) (UniProt P19793)
Assay: crystal structure; RXRα-LBD with Rut and SRC1 peptide; 8% v/v Tacsimate pH 8.0, 20% (w/v) PEG3350, 4°C; 2.0 Å; both purified

- binding: binds
B1: SRC1 peptide (…) (peptide)
peptide: KHKILHRLLQDSS
